Assay results reported in PMC10570026.
No constants are given. Whether binding was seen depends on the method and setting. In cells and extracts the contact can be indirect. Binding can be weak; no strength is given.

T1: Xenopus laevis DONSON (Xenopus laevis (endogenous in egg extract)) (UniProt Q5U4U4)
T1 sequence: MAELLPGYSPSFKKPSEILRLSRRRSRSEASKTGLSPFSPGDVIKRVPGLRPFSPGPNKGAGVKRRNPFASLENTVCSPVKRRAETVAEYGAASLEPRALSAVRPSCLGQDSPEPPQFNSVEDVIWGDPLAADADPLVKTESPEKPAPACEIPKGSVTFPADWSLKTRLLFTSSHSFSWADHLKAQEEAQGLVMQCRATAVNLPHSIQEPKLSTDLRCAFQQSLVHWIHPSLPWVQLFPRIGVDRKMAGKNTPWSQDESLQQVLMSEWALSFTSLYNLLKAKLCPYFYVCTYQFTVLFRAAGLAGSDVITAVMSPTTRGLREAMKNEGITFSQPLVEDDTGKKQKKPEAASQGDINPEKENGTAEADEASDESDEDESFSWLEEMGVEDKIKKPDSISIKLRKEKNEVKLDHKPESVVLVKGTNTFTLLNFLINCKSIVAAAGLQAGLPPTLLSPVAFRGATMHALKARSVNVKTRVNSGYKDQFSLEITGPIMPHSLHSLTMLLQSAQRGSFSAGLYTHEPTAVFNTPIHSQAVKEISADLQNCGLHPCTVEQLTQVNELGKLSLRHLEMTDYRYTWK


Assays:
[1] = target: T1, Xenopus laevis DONSON (Xenopus laevis (endogenous in egg extract)); experiment: co-IP; nuclei with nucleoplasm isolated without detergent from egg extract in mid S-phase (45 min), optionally with p27Kip1 or Cdc7i PHA-767491; benzonase; α-DONSON (rabbit) on Dynabeads Protein A, 4°C 1-2 h; immunoblot
[2] = target: T1, Xenopus laevis DONSON (Xenopus laevis (endogenous in egg extract)); experiment: co-IP; chromatin replicating in Xenopus egg extract isolated in S-phase (unchallenged, or with aphidicolin and caffeine), complexes released with benzonase and sonication; antibodies (α-Cdc45, α-GINS, α-DONSON, α-TopBP1, α-Treslin) on Dynabeads, 4°C 1-2 h, washes in ANIB100; immunoblot
[3] = target: TopBP1 (Xenopus laevis (endogenous in egg extract)); experiment: as above

Row | Molecule | binding [1] | binding [2] | binding [3]
1 | TopBP1 | binds | binds | 
2 | RecQ4 |  | binds | 
3 | Xenopus laevis DONSON (protein, UniProt Q5U4U4 1-579) MAELLPGYSPSFKKPSEILRLSRRRSRSEASKTGLSPFSPGDVIKRVPGLRPFSPGPNKGAGVKRRNPFASLENTVCSPVKRRAETVAEYGAASLEPRALSAVRPSCLGQDSPEPPQFNSVEDVIWGDPLAADADPLVKTESPEKPAPACEIPKGSVTFPADWSLKTRLLFTSSHSFSWADHLKAQEEAQGLVMQCRATAVNLPHSIQEPKLSTDLRCAFQQSLVHWIHPSLPWVQLFPRIGVDRKMAGKNTPWSQDESLQQVLMSEWALSFTSLYNLLKAKLCPYFYVCTYQFTVLFRAAGLAGSDVITAVMSPTTRGLREAMKNEGITFSQPLVEDDTGKKQKKPEAASQGDINPEKENGTAEADEASDESDEDESFSWLEEMGVEDKIKKPDSISIKLRKEKNEVKLDHKPESVVLVKGTNTFTLLNFLINCKSIVAAAGLQAGLPPTLLSPVAFRGATMHALKARSVNVKTRVNSGYKDQFSLEITGPIMPHSLHSLTMLLQSAQRGSFSAGLYTHEPTAVFNTPIHSQAVKEISADLQNCGLHPCTVEQLTQVNELGKLSLRHLEMTDYRYTWK |  |  | binds
